Source: publication PMC10573977 (International Journal of Molecular Sciences, 2023)
Strings that start with PEPTIDE1 are HELM notation: dots part the residues, brackets hold end groups and non-standard residues.

Assay: general procedure: Fmoc solid-phase peptide synthesis; Rink amide MBHA resin (100-200 mesh, 0.83 mmol/g); HBTU/NMM in DMF; Cl-HOBt/DIC in NMP for first glycosyl-Ser coupling
Conditions: whole synthesis, 280 nm

With “PEPTIDE1{D.R.V.Y.I.H.[Ser(Lact)].[am]}$$$$V2.0” as the substance, how does the “final HPLC purity” value read?
The value was 100% purity (at 280 m).
